# Data from the supplement of paper PMC8728848.
# The list shows a part of the results.
# B1: Pwp1 (Candida glabrata) (protein)
# chain: MGSSHHHHHHSSGLVPRGSHMASANPISITNVCQFPDNWARTAGFQATTVRLGLTIASNTYKELLNYPGLFNFATQKATVTQPNFSISGFPFFTGLYGLTVWPINLLVELQGYFVPPESGNYTFTLQGSDDAAILFFANPSTFACGSQNDWPQPREADITVTDTLVPSRTLYLVKGVAYPIRIAYYNGSGDGKLNVSFKDPSGTTHTDWKGYVWQYSNTCSTCTYT
# How the values were obtained:
# Assay in all cases: glycan array binding signal (z-score within array); higher = stronger binding
# Conditions in all cases: glycan notation: IUPAC condensed, linker removed
# Neu5Ac(a2-3)GalNAc = target: Neu5Ac(a2-3)GalNAc
# How it was run: (§1)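 Arrays were curated from the Consortium for Functional Glycomics database, 3228 in total, and kept only where the protein sequence was available. Binding is expressed as a within-array Z-score. This score was averaged across arrays of the same protein sequence at different concentrations or buffers and across linkers, and negative values can be read as non-binding.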
# [1] = target: Neu5Ac(a2-3)GalNAc(b1-4)GlcNAc
# How it was run: as §1
# [2] = target: Neu5Ac(a2-3)[GalNAc(b1-4)]Gal(b1-4)Glc
# How it was run: as §1
# [3] = target: Neu5Ac(a2-3)[GalNAc(b1-4)]Gal(b1-4)GlcNAc
# How it was run: as §1
# [4] = target: Neu5Ac(a2-3)[GalNAc(b1-4)]Gal(b1-4)GlcNAc(b1-3)GalNAc
# How it was run: as §1
# [5] = target: Neu5Ac(a2-3)[Neu5Ac(a2-6)]GalNAc
# How it was run: as §1
# Neu5Ac(a2-6)Gal = target: Neu5Ac(a2-6)Gal
# How it was run: as §1
# [6] = target: Neu5Ac(a2-6)Gal(b1-3)GlcNAc(b1-3)[Gal(b1-4)GlcNAc(b1-6)]Gal(b1-4)Glc
# How it was run: as §1
# Neu5Ac(a2-6)Gal(b1-4)Glc = target: Neu5Ac(a2-6)Gal(b1-4)Glc
# How it was run: as §1
# [7] = target: Neu5Ac(a2-6)Gal(b1-4)GlcNAc
# How it was run: as §1
# [8] = target: Neu5Ac(a2-6)Gal(b1-4)GlcNAc(b1-2)Man
# How it was run: as §1
# [9] = target: Neu5Ac(a2-6)Gal(b1-4)GlcNAc(b1-2)Man(a1-3)Man(b1-4)GlcNAc(b1-4)GlcNAc
# How it was run: as §1
# [10] = target: Neu5Ac(a2-6)Gal(b1-4)GlcNAc(b1-2)Man(a1-3)[Gal(b1-4)GlcNAc(b1-2)Man(a1-6)]Man(b1-4)GlcNAc(b1-4)GlcNAc
# How it was run: as §1
# [11] = target: Neu5Ac(a2-6)Gal(b1-4)GlcNAc(b1-2)Man(a1-3)[GlcNAc(b1-4)][Neu5Ac(a2-6)Gal(b1-4)GlcNAc(b1-2)Man(a1-6)]Man(b1-4)GlcNAc(b1-4)GlcNAc
# How it was run: as §1
# [12] = target: Neu5Ac(a2-6)Gal(b1-4)GlcNAc(b1-2)Man(a1-3)[Man(a1-6)]Man(b1-4)GlcNAc(b1-4)GlcNAc
# How it was run: as §1
# [13] = target: Neu5Ac(a2-6)Gal(b1-4)GlcNAc(b1-2)Man(a1-3)[Neu5Ac(a2-3)Gal(b1-4)GlcNAc(b1-2)Man(a1-6)]Man(b1-4)GlcNAc(b1-4)GlcNAc
# How it was run: as §1
# [14] = target: Neu5Ac(a2-6)Gal(b1-4)GlcNAc(b1-2)Man(a1-3)[Neu5Ac(a2-6)Gal(b1-4)GlcNAc(b1-2)Man(a1-6)]Man(b1-4)GlcNAc(b1-4)GlcNAc
# How it was run: as §1
# [15] = target: Neu5Ac(a2-6)Gal(b1-4)GlcNAc(b1-2)Man(a1-3)[Neu5Ac(a2-6)Gal(b1-4)GlcNAc(b1-2)Man(a1-6)]Man(b1-4)GlcNAc(b1-4)[Fuc(a1-6)]GlcNAc
# How it was run: as §1
# [16] = target: Neu5Ac(a2-6)Gal(b1-4)GlcNAc(b1-2)Man(a1-6)Man(b1-4)GlcNAc(b1-4)GlcNAc
# How it was run: as §1
# [17] = target: Neu5Ac(a2-6)Gal(b1-4)GlcNAc(b1-2)Man(a1-6)[Gal(b1-4)GlcNAc(b1-2)Man(a1-3)]Man(b1-4)GlcNAc(b1-4)GlcNAc
# How it was run: as §1
# [18] = target: Neu5Ac(a2-6)Gal(b1-4)GlcNAc(b1-2)Man(a1-6)[GlcNAc(b1-2)Man(a1-3)]Man(b1-4)GlcNAc(b1-4)GlcNAc
# How it was run: as §1
# [19] = target: Neu5Ac(a2-6)Gal(b1-4)GlcNAc(b1-2)Man(a1-6)[Man(a1-3)]Man(b1-4)GlcNAc(b1-4)GlcNAc
# How it was run: as §1
# [20] = target: Neu5Ac(a2-6)Gal(b1-4)GlcNAc(b1-2)[Neu5Ac(a2-6)Gal(b1-4)GlcNAc(b1-4)]Man(a1-3)[GlcNAc(b1-4)][Neu5Ac(a2-6)Gal(b1-4)GlcNAc(b1-2)[Neu5Ac(a2-6)Gal(b1-4)GlcNAc(b1-6)]Man(a1-6)]Man(b1-4)GlcNAc(b1-4)GlcNAc
# How it was run: as §1
# [21] = target: Neu5Ac(a2-6)Gal(b1-4)GlcNAc(b1-2)[Neu5Ac(a2-6)Gal(b1-4)GlcNAc(b1-4)]Man(a1-3)[GlcNAc(b1-4)][Neu5Ac(a2-6)Gal(b1-4)GlcNAc(b1-4)Man(a1-6)]Man(b1-4)GlcNAc(b1-4)GlcNAc
# How it was run: as §1
# [22] = target: Neu5Ac(a2-6)Gal(b1-4)GlcNAc(b1-2)[Neu5Ac(a2-6)Gal(b1-4)GlcNAc(b1-6)]Man(a1-6)[Neu5Ac(a2-6)Gal(b1-4)GlcNAc(b1-2)Man(a1-3)][GlcNAc(b1-4)]Man(b1-4)GlcNAc(b1-4)GlcNAc
# How it was run: as §1
# [23] = target: Neu5Ac(a2-6)Gal(b1-4)GlcNAc(b1-3)Gal(b1-3)GlcNAc
# How it was run: as §1
# [24] = target: Neu5Ac(a2-6)Gal(b1-4)GlcNAc(b1-3)Gal(b1-4)GlcNAc
# How it was run: as §1
# [25] = target: Neu5Ac(a2-6)Gal(b1-4)GlcNAc(b1-3)Gal(b1-4)GlcNAc(b1-2)Man(a1-3)[Neu5Ac(a2-6)Gal(b1-4)GlcNAc(b1-3)Gal(b1-4)GlcNAc(b1-2)Man(a1-6)]GalNAc
# How it was run: as §1
# [26] = target: Neu5Ac(a2-6)Gal(b1-4)GlcNAc(b1-3)Gal(b1-4)GlcNAc(b1-3)Gal(b1-4)GlcNAc
# How it was run: as §1
# [27] = target: Neu5Ac(a2-6)Gal(b1-4)GlcNAc(b1-3)Gal(b1-4)GlcNAc(b1-3)Gal(b1-4)GlcNAc(b1-2)Man(a1-3)[Neu5Ac(a2-6)Gal(b1-4)GlcNAc(b1-3)Gal(b1-4)GlcNAc(b1-3)Gal(b1-4)GlcNAc(b1-2)Man(a1-6)]GalNAc
# How it was run: as §1
# [28] = target: Neu5Ac(a2-6)Gal(b1-4)GlcNAc(b1-3)Gal(b1-4)GlcNAc(b1-3)GalNAc
# How it was run: as §1
# [29] = target: Neu5Ac(a2-6)Gal(b1-4)GlcNAc(b1-3)Gal(b1-4)GlcNAc(b1-3)[Neu5Ac(a2-6)Gal(b1-4)GlcNAc(b1-3)Gal(b1-4)GlcNAc(b1-6)]GalNAc
# How it was run: as §1
# [30] = target: Neu5Ac(a2-6)Gal(b1-4)GlcNAc(b1-3)Gal(b1-4)GlcNAc(b1-6)[Gal(b1-3)]GalNAc
# How it was run: as §1
# [31] = target: Neu5Ac(a2-6)Gal(b1-4)GlcNAc(b1-3)Gal(b1-4)[Fuc(a1-3)]GlcNAc(b1-3)Gal(b1-4)[Fuc(a1-3)]GlcNAc
# How it was run: as §1
# [32] = target: Neu5Ac(a2-6)Gal(b1-4)GlcNAc(b1-3)GalNAc
# How it was run: as §1
# [33] = target: Neu5Ac(a2-6)Gal(b1-4)GlcNAc(b1-3)[Neu5Ac(a2-6)Gal(b1-4)GlcNAc(b1-6)]GalNAc
# How it was run: as §1
# [34] = target: Neu5Ac(a2-6)Gal(b1-4)GlcNAc(b1-6)GalNAc
# How it was run: as §1
# [35] = target: Neu5Ac(a2-6)Gal(b1-4)GlcNAc(b1-6)[Gal(b1-3)GlcNAc(b1-3)]Gal(b1-4)Glc
# How it was run: as §1
# [36] = target: Neu5Ac(a2-6)Gal(b1-4)GlcNAc(b1-6)[Gal(b1-3)]GalNAc
# How it was run: as §1
# [37] = target: Neu5Ac(a2-6)Gal(b1-4)GlcNAc6S
# How it was run: as §1
# Neu5Ac(a2-6)GalNAc = target: Neu5Ac(a2-6)GalNAc
# How it was run: as §1
# [38] = target: Neu5Ac(a2-6)GalNAc(b1-4)GlcNAc
# How it was run: as §1
# [39] = target: Neu5Ac(a2-6)GalNAc(b1-4)GlcNAc6S
# How it was run: as §1
# [40] = target: Neu5Ac(a2-6)GlcNAc(b1-4)GlcNAc
# How it was run: as §1
# [41] = target: Neu5Ac(a2-6)GlcNAc(b1-4)GlcNAc(b1-4)GlcNAc
# How it was run: as §1
binder,measurement,setting,value
B1,glycan array binding signal (z-score),Neu5Ac(a2-3)GalNAc,0.683
same,glycan array binding signal (z-score),[1],0.042
same,glycan array binding signal (z-score),[2],0.779
same,glycan array binding signal (z-score),[3],0.864
same,glycan array binding signal (z-score),[4],0.767
same,glycan array binding signal (z-score),[5],-0.913
same,glycan array binding signal (z-score),Neu5Ac(a2-6)Gal,-0.133
same,glycan array binding signal (z-score),[6],0.548
same,glycan array binding signal (z-score),Neu5Ac(a2-6)Gal(b1-4)Glc,-0.253
same,glycan array binding signal (z-score),[7],0.954
same,glycan array binding signal (z-score),[8],0.859
same,glycan array binding signal (z-score),[9],-1.55
same,glycan array binding signal (z-score),[10],0.44
same,glycan array binding signal (z-score),[11],-0.52
same,glycan array binding signal (z-score),[12],-0.785
same,glycan array binding signal (z-score),[13],-0.104
same,glycan array binding signal (z-score),[14],-0.46
same,glycan array binding signal (z-score),[15],-2.48
same,glycan array binding signal (z-score),[16],-0.877
same,glycan array binding signal (z-score),[17],-1.02
same,glycan array binding signal (z-score),[18],-1.35
same,glycan array binding signal (z-score),[19],0.335
same,glycan array binding signal (z-score),[20],-1.02
same,glycan array binding signal (z-score),[21],1.29
same,glycan array binding signal (z-score),[22],-0.775
same,glycan array binding signal (z-score),[23],-1.81
same,glycan array binding signal (z-score),[24],-1.47
same,glycan array binding signal (z-score),[25],-1.41
same,glycan array binding signal (z-score),[26],-0.859
same,glycan array binding signal (z-score),[27],-1.2
same,glycan array binding signal (z-score),[28],1.26
same,glycan array binding signal (z-score),[29],-1.39
same,glycan array binding signal (z-score),[30],-1.05
same,glycan array binding signal (z-score),[31],-1.59
same,glycan array binding signal (z-score),[32],-0.238
same,glycan array binding signal (z-score),[33],-1.05
same,glycan array binding signal (z-score),[34],-0.167
same,glycan array binding signal (z-score),[35],0.42
same,glycan array binding signal (z-score),[36],-1.62
same,glycan array binding signal (z-score),[37],0.601
same,glycan array binding signal (z-score),Neu5Ac(a2-6)GalNAc,0.753
same,glycan array binding signal (z-score),[38],0.913
same,glycan array binding signal (z-score),[39],0.553
same,glycan array binding signal (z-score),[40],-0.406
same,glycan array binding signal (z-score),[41],-1.14

# A stretch taken from the entries so far:
binder,measurement,setting,value
B1,glycan array binding signal (z-score),[4],0.767
same,glycan array binding signal (z-score),[5],-0.913
same,glycan array binding signal (z-score),Neu5Ac(a2-6)Gal,-0.133
